Experimental data taken from the supplement of paper PMC10849652.
The other results are listed elsewhere or left out.

The chains behind the UniProt entries cited, without tags or fusion partners. Where a name states a change or a piece, a line headed by the entry shows the natural chain unless it says otherwise.
UniProt O15554, whole entry, looked up: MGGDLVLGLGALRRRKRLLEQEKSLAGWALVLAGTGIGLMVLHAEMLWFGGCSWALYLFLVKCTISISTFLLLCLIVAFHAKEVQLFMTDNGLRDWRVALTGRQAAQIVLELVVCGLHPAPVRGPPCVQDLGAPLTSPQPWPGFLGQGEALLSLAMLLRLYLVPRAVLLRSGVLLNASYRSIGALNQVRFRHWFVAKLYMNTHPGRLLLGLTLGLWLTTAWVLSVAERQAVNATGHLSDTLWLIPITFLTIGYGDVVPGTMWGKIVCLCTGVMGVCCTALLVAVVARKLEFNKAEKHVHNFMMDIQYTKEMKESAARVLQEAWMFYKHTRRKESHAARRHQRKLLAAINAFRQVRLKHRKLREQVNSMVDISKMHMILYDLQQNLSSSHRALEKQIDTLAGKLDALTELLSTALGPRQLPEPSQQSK
UniProt Q9H910: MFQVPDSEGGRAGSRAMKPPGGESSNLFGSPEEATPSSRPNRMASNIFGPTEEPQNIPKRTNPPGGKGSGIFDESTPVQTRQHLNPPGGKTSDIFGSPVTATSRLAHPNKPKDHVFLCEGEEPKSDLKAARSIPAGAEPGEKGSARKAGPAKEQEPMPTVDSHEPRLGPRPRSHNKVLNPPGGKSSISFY
UniProt Q9NXV2: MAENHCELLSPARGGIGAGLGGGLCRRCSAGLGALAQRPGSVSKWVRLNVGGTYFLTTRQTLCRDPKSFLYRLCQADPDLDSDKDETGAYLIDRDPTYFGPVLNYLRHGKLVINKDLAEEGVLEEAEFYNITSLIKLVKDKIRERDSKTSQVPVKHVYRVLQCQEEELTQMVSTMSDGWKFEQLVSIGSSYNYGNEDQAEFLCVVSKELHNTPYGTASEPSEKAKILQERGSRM
UniProt Q9NSK0: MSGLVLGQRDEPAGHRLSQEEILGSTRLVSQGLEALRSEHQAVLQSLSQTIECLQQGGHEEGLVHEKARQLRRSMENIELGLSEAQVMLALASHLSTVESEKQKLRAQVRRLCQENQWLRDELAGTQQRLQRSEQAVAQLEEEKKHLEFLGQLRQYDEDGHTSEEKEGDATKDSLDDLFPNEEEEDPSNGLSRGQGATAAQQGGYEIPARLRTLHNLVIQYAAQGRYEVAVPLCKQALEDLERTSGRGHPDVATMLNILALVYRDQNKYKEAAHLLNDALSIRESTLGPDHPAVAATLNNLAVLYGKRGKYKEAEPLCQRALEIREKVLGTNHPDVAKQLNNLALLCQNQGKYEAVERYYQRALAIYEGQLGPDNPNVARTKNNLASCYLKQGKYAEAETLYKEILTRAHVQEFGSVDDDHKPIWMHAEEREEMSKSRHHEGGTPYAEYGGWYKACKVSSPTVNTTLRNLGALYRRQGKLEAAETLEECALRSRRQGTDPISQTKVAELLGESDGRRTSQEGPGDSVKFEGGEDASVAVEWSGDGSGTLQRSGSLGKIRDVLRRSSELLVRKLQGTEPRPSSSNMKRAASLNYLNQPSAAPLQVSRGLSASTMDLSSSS
UniProt Q07866: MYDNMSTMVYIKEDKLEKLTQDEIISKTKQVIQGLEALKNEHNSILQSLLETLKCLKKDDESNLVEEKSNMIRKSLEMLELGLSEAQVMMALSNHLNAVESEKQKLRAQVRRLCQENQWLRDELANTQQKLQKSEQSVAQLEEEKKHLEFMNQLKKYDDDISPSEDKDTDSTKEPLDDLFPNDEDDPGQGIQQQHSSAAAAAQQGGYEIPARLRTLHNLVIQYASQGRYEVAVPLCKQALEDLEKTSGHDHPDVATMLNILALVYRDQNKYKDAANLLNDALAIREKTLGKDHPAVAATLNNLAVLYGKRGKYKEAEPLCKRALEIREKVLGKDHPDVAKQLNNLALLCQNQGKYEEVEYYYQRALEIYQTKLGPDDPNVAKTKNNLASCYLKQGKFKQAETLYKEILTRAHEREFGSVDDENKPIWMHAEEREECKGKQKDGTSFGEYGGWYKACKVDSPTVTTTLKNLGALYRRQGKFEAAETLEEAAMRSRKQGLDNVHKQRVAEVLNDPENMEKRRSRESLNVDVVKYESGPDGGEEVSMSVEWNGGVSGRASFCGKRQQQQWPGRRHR
UniProt Q15058: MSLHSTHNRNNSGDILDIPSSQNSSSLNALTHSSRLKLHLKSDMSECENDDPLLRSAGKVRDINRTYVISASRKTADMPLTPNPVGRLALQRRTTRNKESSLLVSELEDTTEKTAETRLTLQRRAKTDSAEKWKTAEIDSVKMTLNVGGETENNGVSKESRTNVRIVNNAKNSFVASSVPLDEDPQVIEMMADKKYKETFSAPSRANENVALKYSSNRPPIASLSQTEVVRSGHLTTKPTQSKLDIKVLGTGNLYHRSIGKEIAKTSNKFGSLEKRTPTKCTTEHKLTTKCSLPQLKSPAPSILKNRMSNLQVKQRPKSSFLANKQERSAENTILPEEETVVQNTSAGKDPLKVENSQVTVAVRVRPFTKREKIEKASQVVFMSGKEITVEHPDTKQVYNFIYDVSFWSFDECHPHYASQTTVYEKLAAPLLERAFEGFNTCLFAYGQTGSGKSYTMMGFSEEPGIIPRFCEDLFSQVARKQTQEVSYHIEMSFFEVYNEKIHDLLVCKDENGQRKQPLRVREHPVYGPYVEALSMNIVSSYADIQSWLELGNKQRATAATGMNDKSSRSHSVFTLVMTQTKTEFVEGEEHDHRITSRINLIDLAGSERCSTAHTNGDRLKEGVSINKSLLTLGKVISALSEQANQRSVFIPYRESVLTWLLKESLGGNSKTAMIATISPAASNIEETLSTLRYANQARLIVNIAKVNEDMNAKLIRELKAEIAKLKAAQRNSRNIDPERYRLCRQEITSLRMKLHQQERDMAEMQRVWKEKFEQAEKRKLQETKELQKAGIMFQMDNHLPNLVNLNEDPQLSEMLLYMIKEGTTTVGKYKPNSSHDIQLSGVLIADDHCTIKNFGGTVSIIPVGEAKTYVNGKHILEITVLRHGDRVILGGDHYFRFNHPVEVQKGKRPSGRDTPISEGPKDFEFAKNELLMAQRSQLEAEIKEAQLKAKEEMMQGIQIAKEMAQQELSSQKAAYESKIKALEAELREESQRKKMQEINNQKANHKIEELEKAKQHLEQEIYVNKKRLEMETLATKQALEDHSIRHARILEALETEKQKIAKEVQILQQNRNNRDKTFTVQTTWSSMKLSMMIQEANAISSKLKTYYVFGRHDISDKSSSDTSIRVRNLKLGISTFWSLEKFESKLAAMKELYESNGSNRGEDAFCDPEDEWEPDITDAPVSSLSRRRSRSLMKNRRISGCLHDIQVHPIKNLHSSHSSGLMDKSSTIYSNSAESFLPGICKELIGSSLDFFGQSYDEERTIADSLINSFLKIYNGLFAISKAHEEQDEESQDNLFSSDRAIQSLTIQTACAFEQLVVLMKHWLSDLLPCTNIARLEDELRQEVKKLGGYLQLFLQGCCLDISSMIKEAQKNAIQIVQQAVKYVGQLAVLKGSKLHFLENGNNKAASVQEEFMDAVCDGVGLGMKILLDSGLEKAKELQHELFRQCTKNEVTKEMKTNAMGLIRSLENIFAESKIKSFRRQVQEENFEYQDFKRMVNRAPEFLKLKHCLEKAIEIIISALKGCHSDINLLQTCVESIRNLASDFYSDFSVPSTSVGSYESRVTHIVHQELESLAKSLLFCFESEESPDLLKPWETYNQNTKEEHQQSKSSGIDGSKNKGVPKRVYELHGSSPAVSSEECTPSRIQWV
UniProt Q674X7: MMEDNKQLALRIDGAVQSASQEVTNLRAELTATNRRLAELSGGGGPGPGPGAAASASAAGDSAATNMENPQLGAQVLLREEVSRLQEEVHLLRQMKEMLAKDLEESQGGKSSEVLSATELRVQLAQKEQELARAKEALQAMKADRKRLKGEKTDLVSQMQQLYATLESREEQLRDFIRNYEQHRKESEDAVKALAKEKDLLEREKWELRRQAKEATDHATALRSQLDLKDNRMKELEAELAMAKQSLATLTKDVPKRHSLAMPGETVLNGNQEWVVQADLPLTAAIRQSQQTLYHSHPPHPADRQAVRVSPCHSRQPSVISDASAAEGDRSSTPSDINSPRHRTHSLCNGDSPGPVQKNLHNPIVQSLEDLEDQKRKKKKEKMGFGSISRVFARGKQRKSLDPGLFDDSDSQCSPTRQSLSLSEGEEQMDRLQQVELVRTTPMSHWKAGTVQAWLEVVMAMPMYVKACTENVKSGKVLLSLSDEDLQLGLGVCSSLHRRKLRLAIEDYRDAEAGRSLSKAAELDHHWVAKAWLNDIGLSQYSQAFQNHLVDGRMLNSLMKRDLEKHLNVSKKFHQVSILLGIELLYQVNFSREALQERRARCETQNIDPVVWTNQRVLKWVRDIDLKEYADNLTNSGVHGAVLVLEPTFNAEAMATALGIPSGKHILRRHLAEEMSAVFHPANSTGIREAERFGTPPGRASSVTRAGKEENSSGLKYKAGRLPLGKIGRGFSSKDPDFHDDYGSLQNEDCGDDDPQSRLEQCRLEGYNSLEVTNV
UniProt Q8WYB5, whole entry, looked up: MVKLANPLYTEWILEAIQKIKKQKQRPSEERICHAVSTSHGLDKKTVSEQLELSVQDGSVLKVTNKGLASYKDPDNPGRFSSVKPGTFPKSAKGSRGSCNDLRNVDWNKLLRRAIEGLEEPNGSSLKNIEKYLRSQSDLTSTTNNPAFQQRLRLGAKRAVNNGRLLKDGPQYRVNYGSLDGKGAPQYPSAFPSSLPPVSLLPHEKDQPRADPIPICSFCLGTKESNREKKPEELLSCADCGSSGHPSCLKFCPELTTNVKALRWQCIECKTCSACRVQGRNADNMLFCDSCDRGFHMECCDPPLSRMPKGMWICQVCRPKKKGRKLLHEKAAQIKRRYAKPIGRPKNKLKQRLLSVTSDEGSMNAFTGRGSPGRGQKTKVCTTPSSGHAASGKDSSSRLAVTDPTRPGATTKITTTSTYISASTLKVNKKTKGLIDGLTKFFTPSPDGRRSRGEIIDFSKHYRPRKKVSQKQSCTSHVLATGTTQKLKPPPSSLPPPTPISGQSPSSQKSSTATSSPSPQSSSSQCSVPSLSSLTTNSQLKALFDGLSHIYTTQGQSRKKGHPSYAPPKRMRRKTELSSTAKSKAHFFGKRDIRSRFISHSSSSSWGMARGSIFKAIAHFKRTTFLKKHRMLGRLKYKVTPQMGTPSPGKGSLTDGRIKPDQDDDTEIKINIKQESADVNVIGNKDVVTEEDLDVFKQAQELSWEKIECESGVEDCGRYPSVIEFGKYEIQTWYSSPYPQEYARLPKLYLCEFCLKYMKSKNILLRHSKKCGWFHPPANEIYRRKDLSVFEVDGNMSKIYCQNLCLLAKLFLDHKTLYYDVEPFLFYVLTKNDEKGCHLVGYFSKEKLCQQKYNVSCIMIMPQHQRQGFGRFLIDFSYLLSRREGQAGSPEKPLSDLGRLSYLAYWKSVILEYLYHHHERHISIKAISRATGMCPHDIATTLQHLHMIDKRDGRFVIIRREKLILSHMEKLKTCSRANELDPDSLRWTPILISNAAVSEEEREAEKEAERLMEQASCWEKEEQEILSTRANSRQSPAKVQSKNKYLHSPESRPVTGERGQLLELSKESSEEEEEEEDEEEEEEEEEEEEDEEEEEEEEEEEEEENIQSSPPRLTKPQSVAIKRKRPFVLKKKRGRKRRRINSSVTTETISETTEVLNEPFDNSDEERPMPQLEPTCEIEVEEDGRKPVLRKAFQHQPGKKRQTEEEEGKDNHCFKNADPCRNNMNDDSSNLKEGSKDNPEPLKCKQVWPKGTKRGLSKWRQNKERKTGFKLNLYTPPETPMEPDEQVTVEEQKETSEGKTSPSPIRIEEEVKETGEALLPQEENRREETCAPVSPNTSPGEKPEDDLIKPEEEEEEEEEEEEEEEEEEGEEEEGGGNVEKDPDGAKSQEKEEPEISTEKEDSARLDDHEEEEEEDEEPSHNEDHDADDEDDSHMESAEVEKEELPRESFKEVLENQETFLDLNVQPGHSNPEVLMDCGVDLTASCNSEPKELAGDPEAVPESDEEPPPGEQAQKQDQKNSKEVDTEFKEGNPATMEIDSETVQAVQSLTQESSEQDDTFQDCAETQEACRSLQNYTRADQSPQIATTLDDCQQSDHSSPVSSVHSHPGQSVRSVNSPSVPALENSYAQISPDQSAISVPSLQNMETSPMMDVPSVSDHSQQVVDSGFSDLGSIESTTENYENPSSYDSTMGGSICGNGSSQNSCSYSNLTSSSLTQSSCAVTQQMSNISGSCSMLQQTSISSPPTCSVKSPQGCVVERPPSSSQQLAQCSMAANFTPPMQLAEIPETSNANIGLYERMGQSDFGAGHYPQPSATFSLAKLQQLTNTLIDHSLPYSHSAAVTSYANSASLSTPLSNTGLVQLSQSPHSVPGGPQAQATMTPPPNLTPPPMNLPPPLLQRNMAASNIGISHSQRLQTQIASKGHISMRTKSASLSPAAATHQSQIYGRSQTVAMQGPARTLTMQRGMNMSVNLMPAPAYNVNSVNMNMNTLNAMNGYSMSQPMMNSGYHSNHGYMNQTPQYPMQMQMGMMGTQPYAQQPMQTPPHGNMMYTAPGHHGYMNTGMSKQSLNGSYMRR

Compound: c1cn2cc(-c3ccc4cn[nH]c4c3)nc(Nc3ccc(N4CCOCC4)cc3)c2n1 [entospletinib]
Experiment: log2 fold change, soluble protein after heating vs DMSO (PISA); higher = thermal stabilisation; K562 cells, 10 uM, 30 min; active = over 0.2 and 3.5 SD of the protein, either way, in both replicates (recomputed)
In short: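 Soluble protein was quantified by TMTpro 16plex LC-MS/MS after channel sums were equalised. It was obtained as the supernatant after 21,000xg for 90 min from pooled aliquots of K562 cells (2×10^6 cells/mL, 10 μM compound, 30 min) heated for 3 min across 48°C-58°C and extracted in PBS with 0.5% NP-40 at 4°C. Thermal stability values are relative to control samples and come from duplicates. They are given as log2 fold changes.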

Target | log2 fold change
KDM2A (UniProt Q9Y2K7) | inactive: 0.013
KNL1 (UniProt Q8NG31) | inactive: -0.269
KIAA0319L (UniProt Q8IZA0) | inactive: -0.001
KATNBL1 (UniProt Q9H079) | inactive: 0.274
KLF1 (UniProt Q13351) | inactive: 0.098
KIAA1755 (UniProt Q5JYT7) | inactive: 0.01
KCNN4 (UniProt O15554) | inactive: -0.036
JPT2 isoform 3 (UniProt Q9H910) | inactive: 0.025
KDM1B (UniProt Q8NB78) | inactive: -0.019
KCTD5 (UniProt Q9NXV2) | inactive: 0.129
KLHL11 (UniProt Q9NVR0) | inactive: -0.085
KLC4 isoform 3 (UniProt Q9NSK0) | inactive: -0.043
KIF4A (UniProt O95239) | inactive: -0.025
KLC1 isoform 6 (UniProt Q07866) | inactive: -0.025
KIF13B (UniProt Q9NQT8) | inactive: 0.034
KLHL36 (UniProt Q8N4N3) | inactive: 0.07
KIF3A (UniProt Q9Y496) | active: 0.491
KIAA0930 isoform 2 (UniProt Q6ICG6) | inactive: -0.212
KBTBD8 (UniProt Q8NFY9) | inactive: 0.013
KIF16B isoform 2 (UniProt Q96L93) | inactive: 0.067
KIF14 (UniProt Q15058) | inactive: 0.294
KIFC3 isoform 6 (UniProt Q9BVG8) | inactive: 0.2
JUND (UniProt P17535) | inactive: -0.016
KIAA2013 isoform 2 (UniProt Q8IYS2) | inactive: -0.07
KAZN isoform 3 (UniProt Q674X7) | inactive: -0.133
KBTBD4 isoform 2 (UniProt Q9NVX7) | inactive: -0.08
JMJD1C (UniProt Q15652) | inactive: -0.05
KAT6B (UniProt Q8WYB5) | inactive: 0.008

Two entries picked at random from the list so far:
Target | log2 fold change
KNL1 (UniProt Q8NG31) | inactive: -0.269
KDM1B (UniProt Q8NB78) | inactive: -0.019
